In US8251060B2, “Device and method for delivering an aerosol drug” (priority 2006, dated 2012):

Test: Mass transfer of polyols (aerosol formers) from cellulose pad substrate in aerosol drug delivery device
Settings: about 300° C.

| SMILES | Total transfer of aerosol from device (%) (Expt. 1, 98 mg aerosol former on substrate, heated 10 min) | Total transfer of aerosol from device (%) (Expt. 2, 124 mg aerosol former on substrate, heated 10 min) | Total transfer of aerosol from device (%) (Expt. 3, 120 mg aerosol former on substrate, heated 10 min) | Total transfer of aerosol from device (%) (Expt. 4, 50 mg aerosol former on substrate, heated 5 min) | Total transfer of aerosol from device (%) (Expt. 5, 73 mg aerosol former on substrate, heated 5 min) | Total transfer of aerosol from device (%) (Expt. 6, 78 mg aerosol former on substrate, heated 5 min) |
| --- | --- | --- | --- | --- | --- | --- |
| OCC(O)CO [Glycerin] | 47 | 36 | 34 | – | – | – |
| CC(O)CO (stereo not drawn) [Propylene Glycol (PEG), Propylene Glycol] | – | – | – | 100 | 62 | 79 |
